According to the supplement of paper PMC10373366:
Where a name gives a salt, the structure may show the parent alone. This is one part of the list. Many values rest on one well or one pass, so single values are uncertain.

These molecules were tested on patient-derived ovarian cancer cells (PDC) (assay: cell growth inhibition ratio vs untreated control (CCK8); higher = stronger inhibition of cell viability). Details: 10 µM; 48 h.
Method: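 Natural product library (Topscience) screened at 10 µM final concentration for 48 h on ovarian cancer A2780 cells and patient-derived ovarian cancer cells (PDC) in 96-well plates; viability read by CCK8 and reported as inhibition ratio (%) relative to untreated control. Single-dose primary screen.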
In the case of `C[C@]12CCC(=O)C=C1CC[C@@H]1[C@@H]2CC[C@@]2(C)[C@H]1CC[C@]2(C)O` [17-Methyltestosterone], the “cell growth inhibition ratio” value is reported as 6.21%.
`C[C@H]1O[C@H](O[C@H]2[C@H](O)[C@@H](O)[C@@H](O)[C@H](O)[C@@H]2O)[C@@H](N)C[C@@H]1NC(=N)C(=O)O` [Kasugamycin hydrochloride] was tested, and the “cell growth inhibition ratio” value was 5.38%.
`N#CCCN` [3-Aminopropionitrile fumarate] was tested, and the “cell growth inhibition ratio” value was -11.3%.
With `CC[C@H]1CN2CC[C@H]1C[C@@H]2[C@@H](O)c1ccnc2ccc(OC)cc12` [Hydroquinidine] the “cell growth inhibition ratio” value was -5.47%.
For `CN(CC(=O)O)C(=N)NP(=O)(O)O` [Creatine phosphate disodium salt], the “cell growth inhibition ratio” value was 7.46%.
With `CC(C)=CCOc1c2occc2cc2ccc(=O)oc12` [Imperatorin] the “cell growth inhibition ratio” value was 7.56%.
`O=c1ccc2ccc3occc3c2o1` [Isopsoralen] was tested, and the “cell growth inhibition ratio” value was 4.1%.
`CCCCCCCCC(=O)NCc1ccc(O)c(OC)c1` [Nonivamide] was tested, and the “cell growth inhibition ratio” value was -3.25%.
With `CC1=C2[C@H]3OC(=O)[C@@H](C)[C@@H]3CC[C@@]2(C)C=CC1=O` [α-santonin] the “cell growth inhibition ratio” value was -3.12%.
In the case of `O=C1CCC[C@@H]2[C@H]3CCCN4CCC[C@@H](CN12)[C@@H]34` [(+)-Matrine], the “cell growth inhibition ratio” value is reported as 1.71%.
`NCC(O)c1ccc(O)cc1` (stereo not drawn) [Octopamine hydrochloride] was tested, and the “cell growth inhibition ratio” value was 8.71%.
With `Cc1cc2c(C(C)C)c(O)c(O)c(C=O)c2c(O)c1-c1c(C)cc2c(C(C)C)c(O)c(O)c(C=O)c2c1O` [Gossypol acetic acid] the “cell growth inhibition ratio” value was 71.5%.
In the case of `CCC(=O)O[C@H]1CC[C@H]2[C@@H]3CCC4=CC(=O)CC[C@]4(C)[C@H]3CC[C@]12C` [Testosterone propionate], the “cell growth inhibition ratio” value is reported as 8.74%.
For `NCCc1ccc(O)cc1` [Tyramine], the “cell growth inhibition ratio” value was 62.7%.
For `CC1C=CC=CCCC=CC=CC=CC=CC(OC2OC(C)C(O)C(N)C2O)CC2OC(O)(CC(O)C(O)CCC(O)CC(O)CC(O)CC(=O)OC(C)C(C)C1O)CC(O)C2C(=O)O` (stereo not drawn) [Nystatin (Fungicidin)], the “cell growth inhibition ratio” value was 4.56%.
For `NCCc1c[nH]c2ccc(O)cc12` [Serotonin hydrochloride], the “cell growth inhibition ratio” value was 1.96%.
With `Cc1c([C@H](C)[C@@H]2NC[C@@H](C)C[C@H]2O)ccc2c1C[C@H]1[C@H]2CC=C2C[C@@H](O)CC[C@@]21C` [Veratramine] the “cell growth inhibition ratio” value was 18.5%.
`CC(C)=CCC[C@]1(C)C=Cc2c(O)c3c(c(CC=C(C)C)c2O1)O[C@]12C(=C[C@@H]4C[C@H]1C(C)(C)O[C@@]2(C/C=C(/C)C(=O)O)C4=O)C3=O` [Gambogic Acid] was tested, and the “cell growth inhibition ratio” value was -5.65%.
With `C=C(C)[C@H]1Cc2c(ccc3c2O[C@@H]2COc4cc(OC)c(OC)cc4[C@@H]2C3=O)O1` [Rotenone] the “cell growth inhibition ratio” value was 51.7%.
For `C[C@@H]1CC[C@H]2[C@@H](C)C(=O)O[C@@H]3O[C@@]4(C)CC[C@@H]1[C@]32OO4` [Artemisinin], the “cell growth inhibition ratio” value was -20.7%.
`CC(=O)O[C@H]1C(=O)[C@@]2(C)[C@H]([C@H](OC(=O)c3ccccc3)[C@]3(O)C[C@H](O)C(C)=C1C3(C)C)[C@]1(OC(C)=O)CO[C@@H]1C[C@@H]2O` [Baccatin III] was tested, and the “cell growth inhibition ratio” value was 13.1%.
In the case of `COc1cc2c3c(c1OC)-c1ccccc1C[C@H]3N(C)CC2` [Nuciferine], the “cell growth inhibition ratio” value is reported as 2%.
With `CCC1=CC2CN3CCc4c([nH]c5ccccc45)C(C(=O)OC)(C2)C13` (stereo not drawn) [Catharanthine sulfate] the “cell growth inhibition ratio” value was 24.9%.
`CN1[C@@H]2CC[C@H]1C[C@@H](OC(=O)C(CO)c1ccccc1)C2` (stereo partly drawn) [Atropine sulfate] was tested, and the “cell growth inhibition ratio” value was -4.13%.
With `CC1=CC(=O)c2c(O)cccc2C1=O` [Plumbagin] the “cell growth inhibition ratio” value was -5.52%.
`CN1CCc2cc3c(cc2C1C1OC(=O)c2c1ccc1c2OCO1)OCO3` (single isomer, unassigned; (+)) [(+)-Bicuculline] was tested, and the “cell growth inhibition ratio” value was 5.62%.
In the case of `COc1ccc2c(c1)[nH]c1c(C)nccc12` [Harmine hydrochloride], the “cell growth inhibition ratio” value is reported as 37.2%.
For `CNCC(O)c1ccc(O)cc1` (stereo not drawn) [Synephrine], the “cell growth inhibition ratio” value was 11.4%.
With `COc1ccc2c(c[n+](C)c3c4cc5c(cc4ccc23)OCO5)c1OC` [Chelerythrine chloride] the “cell growth inhibition ratio” value was 35.3%.
For `CCC1=C[C@@H]2CN3CCc4c([nH]c5ccccc45)[C@@](C(=O)OC)(C2)[C@@H]13` [Catharanthine tartrate], the “cell growth inhibition ratio” value was -0.0387%.
In the case of `C[C@]12CC[C@H](O)CC1=CC[C@@H]1[C@@H]2CC[C@]2(C)C(=O)CC[C@@H]12` [Dehydroepiandrosterone], the “cell growth inhibition ratio” value is reported as 12.1%.
`O=C(/C=C/c1ccccc1)OC[C@H]1O[C@@H](O[C@@H]2OC=C[C@H]3[C@H](O)[C@@H]4O[C@]4(CO)[C@@H]23)[C@H](O)[C@@H](O)[C@@H]1O` [Picroside I] was tested, and the “cell growth inhibition ratio” value was 10.8%.
With `CC(C)=CCC[C@@](C)(O)[C@H]1CC[C@]2(C)[C@@H]1[C@H](O)C[C@@H]1[C@@]3(C)CC[C@H](O)C(C)(C)[C@@H]3[C@@H](O[C@@H]3O[C@H](CO)[C@@H](O)[C@H](O)[C@H]3O)C[C@]12C` [(20R)-Ginsenoside Rh1] the “cell growth inhibition ratio” value was -7.86%.
